Measurements: paper PMC10163288
Some of the results follow.

B1: il10ra_site1_sap_17_mot_802863e75c239dc72d0ffd0be86c571b_0001_1_000000009_0001_36_49_H_._HHH_b1_01883_af2_0001_0000500024_0000001_0_0001 (protein)
chain: SSSSDLEEEVEELLEELKHAKSEEEYAELALRVVRVAYESNDPELLEEVWEVIKEVASRLSSSSS
B2: il10ra_site1_normal_mot_HHH_b1_01082_af2_000000031_0001_3_19_H_._HHH_b1_05184_af2_0001_0000100004_0000001_1 (protein)
chain: SSSSDEEAYELLKRIIEQLIELARNGDPEEAEELAEKAREELEELGDPFFAEQLERAFRLISSSS
B3: il10ra_site1_sap_17_mot_HHH_b1_06789_af2_000000041_0001_1_20_H_._HHH_b2_08192_af2_0001_0000100001_0000001_1_0001 (protein)
chain: SSSSSSSKADEIYELIRKAMEIEDPKEAEEVLEEAKRLAEELGSMTLLWIVEWLLEKLSSSSSSS
B4: il10ra_site1_sap_16_mot_HHH_b1_01307_000000115_0001_1_18_H_._HHH_b2_08110_0001_0000400034_0000001_0_0001_af2pred_0001 (protein)
chain: SSSSSEIEEEVKELLEEAKRIDDKDERAHVLLRAFAVAVRGNNPELEEEVERVAIELSEKSSSSS
B5: il10ra_site1_sap_23_mot_HHH_b2_00475_000000107_0001_44_57_H_._HHH_b1_00351_0001_0000200016_0000001_0_0001_af2pred_0001 (protein)
chain: SSSSSEEEEEVEELLRQAEEARENGDPELVFKLLRRAIEIAAKNNDPELLRLVREFLKRLFSSSS
B6: il10ra_site1_normal_mot_HHH_b1_06994_000000193_0001_40_55_H_._HHH_b2_06031_0001_0000100010_0000001_0 (protein)
chain: SSSSDQEEELIRAALRLVKQILEHGDPRSARFLLWAARLLAEEINNEELLERVEELEEELNSSSS
B7: il10ra_site1_sap_13_mot_HHH_b2_01235_000000294_0001_1_18_H_._HHH_b1_00824_0001_0000300026_0000002_0_0001 (protein)
chain: SSSSDDLEQLFELLRRIAELLHEGDPEEARELIEEAKELAEELNSDVFRMQLEYLEKQAESSSSS
B8: il10ra_site1_normal_mot_HHH_b1_02062_000000185_0001_1_20_H_._HHH_b1_08541_0001_0000100021_0000002_0 (protein)
chain: SSSSTEERRRAYELSREIVELESEGDEERAEELLEELRELVEKLGDENFEFIVRLLERLLHSSSS
B9: il10ra_site1_normal_mot_8756ee2cf497b5429c717dfc0c0bcfd6_0001_000000186_0001_1_13_H_._HHH_b1_02500_0001_0000100009_0000001_0 (protein)
chain: SSSDVAERVQELSREAAELDLQGNPEEAEEVVEEALELAEEGNNDVLRVTLEYLLRLIRENSSSS
B10: il10ra_site1_normal_mot_d2735b3c0fe9b97dc03c9ec5d23a03fd_0001_1_af2_000000071_0001_17_32_H_._HHH_b1_00695_0001_0000200018_0000001_0 (protein)
chain: SSSSTEERQHLEAIIWFAEITRRENPHAARRALEFALEIAEELNDEEAAERIEELLREIRESSSS
B11: il10ra_site1_sap_23_mot_HHH_b1_05214_000000232_0001_38_57_H_._66981ac803f9207b9bc56eb15b90107a_0001_0001_0000100001_0000002_0_0001 (protein)
chain: SSSSSSDVEEILEEAEEARERGDPERALRLLQEAIRLAFQLGDAEKLQLIYEVAKRIESSSSSSS
B12: il10ra_site1_normal_mot_HHH_b2_03038_000000109_0001_1_20_H_._HHH_b2_04520_0001_0000400053_0000002_0 (protein)
chain: SSSSSEAEELYKLSREINELIVEGDREEAEELLEEARELAERAGNLNFRVILEFLERLLESSSSS
B13: il10ra_site1_normal_mot_HHH_b1_02997_000000220_0001_39_52_H_._HHH_b1_06600_0001_0000200014_0000002_0_af2pred_0001 (protein)
chain: SSSSSKSEEAVKLLREAIEALAEGNPEEAEELLEEARRLAEEANNLITRVIIEFLLEQLESSSSS
B14: il10ra_site1_normal_mot_HHH_b2_00277_af2_000000172_0001_1_17_H_._HHH_b2_00497_0001_0000300029_0000002_1_af2pred_0001 (protein)
chain: SSSSSDLEEEVRKLLEEARQIEDLREAAYALTRAFAIAVRNNNEELEREVKEVAKEVMHLSSSSS
B15: il10ra_site1_sap_23_mot_HHH_b1_06816_000000239_0001_1_19_H_._HHH_b1_02701_0001_0000100010_0000002_0_0001 (protein)
chain: SSSDRAQRAYELLKEIIRLASDGNPEEAEELLRELEELIKERGSPVMEFLLRKAEELVEETSSSS
B16: il10ra_site1_sap_15_mot_HHH_b2_07596_000000080_0001_23_39_H_._HHH_b2_00613_0001_0000100015_0000001_0_0001_af2pred_0001 (protein)
chain: SSSSSSDIARRVYELSREAAQIDDPEEAQEVAEEALELAEEGNNPVLVHVARFLLERLSSSSSSS
B17: il10ra_site1_normal_mot_HHH_b1_00999_000000080_0001_41_55_H_._HHH_b2_07384_0001_0000600020_0000002_0 (protein)
chain: SSSSSSEEVEELLEEAEELYKRGNEEEVTRVLQEATQFAFELQDPELLRLVWKLAKELGSSSSSS
B18: il10ra_site1_sap_15_mot_HHH_b1_01939_000000180_0001_37_52_H_._HHH_b1_08166_af2_0001_0000600039_0000001_0_0001 (protein)
chain: SSSSSEEEEEAQRLLEELERLLEEGDHEEFIRVSVRALRVIYRAQNPELLRLLWELVKKWGSSSS
B19: il10ra_site1_sap_17_mot_23887b7af660956ed16a9c889f5d2f9d_0001_1_af2_000000073_0001_18_33_H_._HHH_b1_04072_af2_0001_0000200002_0000001_0_0001_af2pred_0001 (protein)
chain: SSSSDEEEEEVEELLKRLEEAIKEGDLELASKLIRRLAKLIAELQDEELLRELRRLLRELFSSSS
B20: il10ra_site1_sap_24_mot_HHH_b2_04912_000000028_0001_1_20_H_._HHH_b2_02255_af2_0001_0000400043_0000001_0_0001 (protein)
chain: SSSSDEEYEEYAKALERIVKLLHEGDREEAERLAEELLEELREQGNRLMTYQVEHLLKLVRSSSS
B21: il10ra_site1_sap_14_mot_HHH_b1_05254_000000006_0001_1_19_H_._HHH_b2_02801_0001_0000600080_0000001_0_0001 (protein)
chain: SSSDAHRRIYELSRRVAELDHDGDTEEAREVLEEAQELAKEAGDRVLLAVLEFLEELLERLSSSS
B22: il10ra_site1_sap_18_mot_HHH_b1_03230_000000248_0001_1_19_H_._HHH_b2_05063_af2_0001_0000500013_0000001_0_0001 (protein)
chain: SSSSSEEEQRLEELIEEAEELLKNGDPERANKVLAEAVRLAFQLGDKEALQRIWELAKRSSSSSS
B23: il10ra_site1_normal_mot_HHH_b1_02997_000000220_0001_39_52_H_._HHH_b1_07617_0001_0000200017_0000001_0_af2pred_0001 (protein)
chain: SSSSSEHQRIYELIREAVRLAENGNPEEAREVVEEAQELAEEANDEAAEILIKFLLRKIEGSSSS
B24: il10ra_site1_sap_18_mot_HHH_b2_03076_af2_000000041_0001_42_56_H_._HHH_b1_04580_0001_0000300035_0000002_0_0001 (protein)
chain: SSSSDAYEAAKRIIERVLRLLEEGNEEEARELVERLREFAEERNSPILKATVRVLERIVESSSSS
B25: il10ra_site1_sap_17_mot_HHH_b1_04015_af2_000000074_0001_1_17_H_._HHH_b1_08117_af2_0001_0000600044_0000002_0_0001 (protein)
chain: SSSSSDEELEERIEELLRELEQITDPKEFIKVALEALRLIYELQDPELLRELWEIIKKNSSSSSS
B26: il10ra_site1_normal_mot_HHH_b2_03425_000000200_0001_22_39_H_._HHH_b1_00050_0001_0000100011_0000001_0 (protein)
chain: SSSSDLEERAEELIEELEKLQKEGDAEEVYRVAREVIEVAIEGGNEELLRLVMELLQEFFSSSSS
B27: il10ra_site1_sap_18_mot_HHH_b2_07873_af2_000000172_0001_1_19_H_._HHH_b2_00184_0001_0000400011_0000001_0_0001 (protein)
chain: SSSSDENQRALELSLEAFRVALRGNPEEAEKILEEAKEIAEEAGNERLVELIENLLETVRSSSSS
B28: il10ra_site1_normal_mot_HHH_b2_03801_000000188_0001_20_36_H_._HHH_b1_01557_0001_0000600034_0000001_0_af2pred_dldesign_0_af2pred (protein)
chain: SSSSSNKQIARDTAQRLLDAAKQMDDLEARRRALEYALALAEAINDEELIAEIRALLAELSSSSS
B29: il10ra_site1_sap_22_mot_HHH_b1_01247_af2_000000274_0001_1_19_H_._HHH_b2_07811_0001_0000500029_0000001_0_0001 (protein)
chain: SSSSDTHEVYKLSREAAELLAEGDPEQAEEVLEEAIELAEKLNSPVFRFALERMLKAVRERSSSS
B30: il10ra_site1_normal_mot_HHH_b1_03613_af2_000000245_0001_1_20_H_._HHH_b2_08139_0001_0000100005_0000001_0 (protein)
chain: SSSSSDELYEIVRRAIEEARELSKRDPEEAKEVLERALEVAEENNNFAARFSLEHLARALSSSSS
B31: il10ra_site1_normal_mot_HHH_b2_00277_af2_000000172_0001_1_17_H_._HHH_b1_06426_0001_0000300016_0000001_0 (protein)
chain: SSSSDEEVREILEEAEEATERGDEEKARELVLEAAAVAARLGDPHLSFLVIEVYARIHQYHSSSS
B32: il10ra_site1_sap_16_mot_HHH_b2_04251_af2_000000037_0001_42_56_H_._HHH_b1_00525_0001_0000300039_0000002_0_0001 (protein)
chain: SSSSDREEEIVRKIVEELGLSESIKHFLEWAARLLLEAGLSEEEVEERLKEMAERQARQDSSSSS
B33: il10ra_site1_normal_mot_HHH_b1_04100_af2_000000180_0001_1_19_H_._HHH_b2_02144_0001_0000500038_0000001_0 (protein)
chain: SSSSSDEEEVQRYVELALRFAELVEDERTRRFLLEAAKQMAELLNDPELRRLIEEVEEELSSSSS
B34: il10ra_site1_sap_23_mot_HHH_b2_01705_af2_000000069_0001_44_57_H_._HHH_b2_06012_0001_0000500032_0000003_0_0001 (protein)
chain: SSSSSKEEAEQLLVEAMELRNEGNPEEAKEVAEEALKLAEEGGDRATAWLIEQLLRALELSSSSS
B35: il10ra_site1_sap_19_mot_HHH_b1_03314_af2_000000278_0001_42_55_H_._HHH_b1_08751_0001_0000900020_0000001_0_0001 (protein)
chain: SSSSDERQEALRLHQEAFRLLLRGNPEEAERILERAEELARESGDERLLKMIEDLLKAHKSSSSS
B36: il10ra_site1_sap_26_mot_HHH_b1_06912_af2_000000235_0001_1_15_H_._HHH_b1_00301_af2_0001_0000600049_0000002_0_0001 (protein)
chain: SSSSDEAEEELERLLREIEEAIKEGDPEKVLRLLLEALRFAYRAGDEEALRELWELAKRIASSSS
B37: il10ra_site1_normal_mot_HHH_b1_06789_af2_000000041_0001_1_20_H_._HHH_b2_03756_0001_0000300018_0000002_0_af2pred_0001 (protein)
chain: SSSSDAERDVRIALKLAELAAEQGDEELVEKLLELAEHQARLSGDPELEELVEEVARKLTSSSSS

These binders were tested against il10ra, Q13651 (assay: yeast display titration).

Apparent Kd, inactive:
B1 no binding seen
B2 no binding seen
B3 no binding seen
B4 no binding seen
B5 no binding seen
B6 no binding seen
B7 no binding seen
B8 no binding seen
B9 no binding seen
B10 no binding seen
B11 no binding seen
B12 no binding seen
B13 no binding seen
B14 no binding seen
B15 no binding seen
B16 no binding seen
B17 no binding seen
B18 > 0.644 µM
B19 no binding seen
B20 > 0.528 µM
B21 no binding seen
B22 no binding seen
B23 no binding seen
B24 no binding seen
B25 no binding seen
B26 no binding seen
B27 no binding seen
B28 no binding seen
B29 no binding seen
B30 no binding seen
B31 no binding seen
B32 no binding seen
B33 no binding seen
B34 no binding seen
B35 no binding seen
B36 no binding seen
B37 no binding seen

3 entries drawn at random from the list so far:
Apparent Kd, inactive:
B33 no binding seen
B32 no binding seen
B11 no binding seen
